Publication PMC7870876
No constants are given. Whether binding was seen depends on the method and setting. Binding seen in cells or lysates may run through a third protein. Binding calls can cover weak binding; strength is not graded here.

The chains behind the UniProt entries cited, without tags or fusion partners. Where a name states a change or a piece, a line headed by the entry shows the natural chain unless it says otherwise.
UniProt P25286: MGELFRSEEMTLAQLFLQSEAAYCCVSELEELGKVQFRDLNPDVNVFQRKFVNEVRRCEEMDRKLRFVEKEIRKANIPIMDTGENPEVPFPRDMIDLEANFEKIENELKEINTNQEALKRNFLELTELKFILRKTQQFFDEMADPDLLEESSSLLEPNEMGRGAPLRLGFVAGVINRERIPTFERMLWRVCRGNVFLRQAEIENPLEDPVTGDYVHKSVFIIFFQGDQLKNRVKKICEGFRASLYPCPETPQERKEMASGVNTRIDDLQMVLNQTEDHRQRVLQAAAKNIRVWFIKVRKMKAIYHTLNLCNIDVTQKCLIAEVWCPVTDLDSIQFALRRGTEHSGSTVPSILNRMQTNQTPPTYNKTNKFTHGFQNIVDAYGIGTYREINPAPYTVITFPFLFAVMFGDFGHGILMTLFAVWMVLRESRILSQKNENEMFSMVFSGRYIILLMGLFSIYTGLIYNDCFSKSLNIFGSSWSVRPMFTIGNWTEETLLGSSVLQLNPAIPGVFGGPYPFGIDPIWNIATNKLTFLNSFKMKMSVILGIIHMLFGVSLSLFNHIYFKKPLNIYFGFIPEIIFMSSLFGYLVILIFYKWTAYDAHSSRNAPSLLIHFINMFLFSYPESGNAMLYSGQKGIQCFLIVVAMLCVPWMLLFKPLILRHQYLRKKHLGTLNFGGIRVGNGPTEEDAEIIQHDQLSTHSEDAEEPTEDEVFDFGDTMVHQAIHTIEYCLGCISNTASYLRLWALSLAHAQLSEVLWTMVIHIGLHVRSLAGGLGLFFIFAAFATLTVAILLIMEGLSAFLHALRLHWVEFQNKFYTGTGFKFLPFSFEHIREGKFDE
UniProt Q5M7T6: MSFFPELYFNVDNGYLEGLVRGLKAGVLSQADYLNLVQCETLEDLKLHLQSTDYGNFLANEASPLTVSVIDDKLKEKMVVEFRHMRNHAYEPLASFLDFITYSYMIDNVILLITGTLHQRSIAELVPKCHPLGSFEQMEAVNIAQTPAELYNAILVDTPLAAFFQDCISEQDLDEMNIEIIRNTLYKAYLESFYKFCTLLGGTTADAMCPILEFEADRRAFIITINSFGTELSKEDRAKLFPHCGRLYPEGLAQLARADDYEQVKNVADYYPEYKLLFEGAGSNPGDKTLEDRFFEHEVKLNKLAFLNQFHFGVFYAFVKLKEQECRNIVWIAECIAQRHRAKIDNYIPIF
UniProt Q8R2H0: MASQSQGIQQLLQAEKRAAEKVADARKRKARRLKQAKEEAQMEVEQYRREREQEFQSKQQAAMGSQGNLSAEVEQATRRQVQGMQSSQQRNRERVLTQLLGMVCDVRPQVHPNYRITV
UniProt B2GUV5: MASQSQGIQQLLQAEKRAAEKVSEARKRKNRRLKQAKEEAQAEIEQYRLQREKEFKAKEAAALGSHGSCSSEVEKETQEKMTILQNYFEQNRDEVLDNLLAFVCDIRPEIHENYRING
UniProt Q6AXS4: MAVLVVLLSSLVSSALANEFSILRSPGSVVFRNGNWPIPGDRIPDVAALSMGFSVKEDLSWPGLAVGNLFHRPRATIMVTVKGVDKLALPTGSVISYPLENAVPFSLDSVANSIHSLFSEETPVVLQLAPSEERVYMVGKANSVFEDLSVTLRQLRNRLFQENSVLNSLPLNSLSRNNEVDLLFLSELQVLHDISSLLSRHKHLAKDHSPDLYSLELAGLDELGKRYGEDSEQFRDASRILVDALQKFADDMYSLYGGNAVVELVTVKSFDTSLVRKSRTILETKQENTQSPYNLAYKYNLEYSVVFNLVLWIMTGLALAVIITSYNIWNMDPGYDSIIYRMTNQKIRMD
UniProt P63045: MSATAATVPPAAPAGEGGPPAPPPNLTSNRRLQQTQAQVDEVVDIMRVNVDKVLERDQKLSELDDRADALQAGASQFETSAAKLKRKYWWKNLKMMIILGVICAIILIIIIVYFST

Assays:
[1] = target: V-ATPase-a1 (rat (endogenous in rat brain synaptic vesicles)) (UniProt P25286); assay: cross-linking; synaptic vesicles incubated with an excess of soluble ΔN-SNARE complex (about 3 copies per copy of Synaptobrevin-2, 16 h, 4 °C), then BS3 and LC-MS/MS; vesicle proteins and the SNARE complex on the vesicles
[2] = target: V-ATPase subunit d1 (rat (endogenous in rat brain synaptic vesicles)) (UniProt Q5M7T6); assay: as above
[3] = target: V-ATPase-a1 (rat (endogenous in rat brain synaptic vesicles)) (UniProt P25286); assay: cross-linking
[4] = target: V-ATPase subunit d1 (rat (endogenous in rat brain synaptic vesicles)) (UniProt Q5M7T6); assay: cross-linking
[5] = target: V-ATPase-a1 (rat (endogenous in rat brain synaptic vesicles)) (UniProt P25286); assay: cross-linking; purified, unstimulated, untreated rat brain synaptic vesicles; 10 mM BS3, 1 h, 25 °C; trypsin, enrichment of cross-linked peptides by peptide SEC, LC-MS/MS, pLink, manual validation; four biological replicates
[6] = target: V-ATPase subunit d1 (rat (endogenous in rat brain synaptic vesicles)) (UniProt Q5M7T6); assay: as above
[7] = target: V-ATPase-a1 (rat (endogenous in rat brain synaptic vesicles)) (UniProt P25286); assay: cross-linking; synaptic vesicles fused with ΔN-SNARE-proteoliposomes (100 nm liposomes), then BS3 and LC-MS/MS; vesicle proteins in the more spacious membrane
[8] = target: V-ATPase subunit d1 (rat (endogenous in rat brain synaptic vesicles)) (UniProt Q5M7T6); assay: as above
[9] = target: V-ATPase subunit G2 (rat (endogenous in rat brain synaptic vesicles)) (UniProt Q8R2H0); assay: cross-linking; synaptic vesicles incubated with an excess of soluble ΔN-SNARE complex (about 3 copies per copy of Synaptobrevin-2, 16 h, 4 °C), then BS3 and LC-MS/MS; vesicle proteins and the SNARE complex on the vesicles
[10] = target: V-ATPase subunit G1 (rat (endogenous in rat brain synaptic vesicles)) (UniProt B2GUV5); assay: as above
[11] = target: V-ATPase subunit G2 (rat (endogenous in rat brain synaptic vesicles)) (UniProt Q8R2H0); assay: cross-linking
[12] = target: V-ATPase subunit G1 (rat (endogenous in rat brain synaptic vesicles)) (UniProt B2GUV5); assay: cross-linking
[13] = target: V-ATPase subunit G2 (rat (endogenous in rat brain synaptic vesicles)) (UniProt Q8R2H0); assay: cross-linking; purified, unstimulated, untreated rat brain synaptic vesicles; 10 mM BS3, 1 h, 25 °C; trypsin, enrichment of cross-linked peptides by peptide SEC, LC-MS/MS, pLink, manual validation; four biological replicates
[14] = target: V-ATPase subunit G1 (rat (endogenous in rat brain synaptic vesicles)) (UniProt B2GUV5); assay: as above
[15] = target: V-ATPase subunit G2 (rat (endogenous in rat brain synaptic vesicles)) (UniProt Q8R2H0); assay: cross-linking; synaptic vesicles fused with ΔN-SNARE-proteoliposomes (100 nm liposomes), then BS3 and LC-MS/MS; vesicle proteins in the more spacious membrane
[16] = target: V-ATPase subunit G1 (rat (endogenous in rat brain synaptic vesicles)) (UniProt B2GUV5); assay: as above

Measured: binding

PRR (from UniProt Q6AXS4)
binds: [1] | [2] | [3] | [4] | [5] | [6] | [7] | [8]

Synaptobrevin-2 (from UniProt P63045 1-116)
binds: [5]

V-ATPase-a1 (from UniProt P25286)
not listed: [1] | [3] | [5] | [7]
binds: all other assays above
